Measurements reported in PubChem BioAssay AID1053208 (Peter MacCallum Cancer Centre, 2014)

Aim: 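Genes whose silencing cuts survival of bone tumour cells only with doxorubicin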 (primary screen)
Cells: mouse osteosarcoma cells, early-passage culture from an engineered mouse model of fibroblastic bone tumour
Reagent: siRNA pool against mouse genes, 40 nM
Timing: about 120 h (48 h before drug, then 72 h with drug)
Challenge: doxorubicin 100 nM for 72 h, roughly 30-40% inhibitory dose
Detection: 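Luminescent ATP signal taken as viability with or without 100 nM doxorubicin for 72 h; mean of two wells set against non-targeting siRNA and turned into robust z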
Scale: viability z-score with doxorubicin and doxorubicin viability vs non-targeting: higher = more viable cells under doxorubicin; viability z-score without drug: higher = more viable cells with knock-down alone; z-score of drug to no-drug ratio: higher = less drug sensitisation by knock-down
Call rule: 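a pool counts as active when its viability z-score with doxorubicin is -2 or below and its z-score without drug lies between -2 and 2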
The whole screen tested about 17,000 reagents; below is a random part of them. In the full data, 788 (4.7%) were called active. 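Calls rest on z-score classes alone; an extra cut-off of viability at most 70% of control was not applied to them.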 The numbers tell different reagents against one gene apart. No sequences are given here.

no.	gene knocked down	reagent	combined z-score class	viability z-score with doxorubicin	viability z-score without drug	z-score of drug to no-drug ratio	doxorubicin viability vs non-targeting	activity call
1	1600014C10Rik (RIKEN cDNA 1600014C10 gene)	1	no change with or without drug	0.22	0.17	0.22	0.96	inactive
2	Morn2 (MORN repeat containing 2)	1	low cell count with and without drug	-2.14	-2.36	-0.56	0.75	inactive
3	A530079E22Rik (RIKEN cDNA A530079E22 gene)	1	no change with or without drug	0.22	-0.17	0.45	0.96	inactive
4	5930403N24Rik (RIKEN cDNA 5930403N24 gene)	1	high cell count without drug only	-0.79	2.19	-1.91	0.87	inactive
5	Serpinh1 (serine (or cysteine) peptidase inhibitor, clade H, member 1)	1	no change with or without drug	1.35	1.85	0.22	1.06	inactive
6	Mllt11	1	no change with or without drug	-0.9	0	-0.79	0.86	inactive
7	Mtf1 (metal response element binding transcription factor 1)	1	no change with or without drug	0.56	-0.84	1.35	0.99	inactive
8	Kif2c (kinesin family member 2C)	1	no change with or without drug	-0.45	1.18	-1.12	0.9	inactive
9	Syt1 (synaptotagmin I)	1	no change with or without drug	1.35	1.69	0.34	1.06	inactive
10	Gpr6 (G protein-coupled receptor 6)	1	no change with or without drug	0.34	-0.51	0.79	0.97	inactive
11	Nup133 (nucleoporin 133)	1	low cell count without drug only	-1.35	-3.04	0.9	0.82	inactive
12	Or12e9 (olfactory receptor family 12 subfamily E member 9)	1	no change with or without drug	0	0.51	-0.22	0.94	inactive
13	Ccdc28a (coiled-coil domain containing 28A)	1	no change with or without drug	0.67	0.17	0.67	1	inactive
14	1810009N02Rik (RIKEN cDNA 1810009N02 gene)	1	low cell count with doxorubicin only	-3.6	-0.17	-3.6	0.62	active
15	2310022B05Rik (RIKEN cDNA 2310022B05 gene)	1	no change with or without drug	1.35	0.34	1.24	1.06	inactive
16	Akr1c18 (aldo-keto reductase family 1, member C18)	1	no change with or without drug	0.67	0.17	0.67	1	inactive
17	Slc35a1	1	no change with or without drug	0.34	0.51	0.11	0.97	inactive
18	Kif13a (kinesin family member 13A)	1	no change with or without drug	-0.56	0	-0.45	0.89	inactive
19	Kank1 (KN motif and ankyrin repeat domains 1)	1	no change with or without drug	-0.67	0.51	-0.9	0.88	inactive
20	Golph3l (golgi phosphoprotein 3-like)	1	low cell count with doxorubicin only	-2.14	1.01	-2.7	0.75	active
21	Nat3 (N-acetyltransferase 3)	1	low cell count with doxorubicin only	-2.25	-0.84	-1.8	0.74	active
22	Csf1r (colony stimulating factor 1 receptor)	1	high cell count without drug only	0.11	3.2	-1.69	0.95	inactive
23	Tbc1d12 (TBC1D12: TBC1 domain family, member 12)	1	high cell count with doxorubicin only	2.02	1.85	0.9	1.12	inactive
24	Pou2af1 (POU domain, class 2, associating factor 1)	1	no change with or without drug	0.9	1.85	-0.22	1.02	inactive
25	Set (SET nuclear proto-oncogene)	1	high cell count without drug only	1.91	2.7	0.22	1.11	inactive
26	Slc12a6	1	no change with or without drug	-0.67	-1.52	0.45	0.88	inactive
27	Spred3 (sprouty-related EVH1 domain containing 3)	1	no change with or without drug	-0.22	1.52	-1.12	0.92	inactive
28	Vrk2 (vaccinia related kinase 2)	1	no change with or without drug	-0.45	1.35	-1.24	0.9	inactive
29	Gpr75 (G protein-coupled receptor 75)	1	no change with or without drug	0.45	0.17	0.45	0.98	inactive
30	Saa4 (serum amyloid A 4)	1	no change with or without drug	-1.35	-0.84	-0.79	0.82	inactive
31	Rint1 (RAD50 interactor 1)	1	no change with or without drug	0.11	-1.18	1.12	0.95	inactive
32	Nxph4 (neurexophilin 4)	1	low cell count with and without drug	-2.92	-3.2	-1.01	0.68	inactive
33	Obscn	1	low cell count without drug only	0.45	-2.19	2.47	0.98	inactive
34	Muc5b (mucin 5, subtype B, tracheobronchial)	1	no change with or without drug	-1.57	-1.18	-0.79	0.8	inactive
35	Txnl4a (thioredoxin-like 4A)	1	no change with or without drug	1.12	-0.84	2.02	1.04	inactive
36	Txnl4a (thioredoxin-like 4A)	2	no change with or without drug	-0.22	0.17	-0.22	0.92	inactive
37	Apbb1ip	1	no change with or without drug	-0.22	-0.17	0	0.92	inactive
38	Eny2 (ENY2 transcription and export complex 2 subunit)	1	low cell count with doxorubicin only	-3.6	-1.01	-3.15	0.62	active
39	Psmb10 (proteasome (prosome, macropain) subunit, beta type 10)	1	no change with or without drug	1.24	0.84	0.79	1.05	inactive
40	Mrps35 (mitochondrial ribosomal protein S35)	1	no change with or without drug	0.22	-0.84	1.01	0.96	inactive
41	Tdp2 (tyrosyl-DNA phosphodiesterase 2)	1	no change with or without drug	1.35	1.01	0.79	1.06	inactive
42	Rhox6 (reproductive homeobox 6)	1	no change with or without drug	0.79	1.52	-0.11	1.01	inactive
43	Dcbld2 (discoidin, CUB and LCCL domain containing 2)	1	no change with or without drug	0.56	0.84	0.11	0.99	inactive
44	Msmb (beta-microseminoprotein)	1	no change with or without drug	0.34	0.17	0.34	0.97	inactive
45	Tuft1 (tuftelin 1)	1	no change with or without drug	0.22	-1.85	1.8	0.96	inactive
46	Zfp180 (zinc finger protein 180)	1	low cell count without drug only	-0.9	-2.53	1.01	0.86	inactive
47	Man2a2 (mannosidase 2, alpha 2)	1	no change with or without drug	-1.69	-1.18	-0.9	0.79	inactive
48	Eef2 (eukaryotic translation elongation factor 2)	1	no change with or without drug	-1.12	-1.18	-0.34	0.84	inactive
49	COL6A3	1	no change with or without drug	0.56	0.34	0.45	0.99	inactive
50	Rpf1 (ribosome production factor 1 homolog)	1	low cell count without drug only	-1.35	-4.22	2.14	0.82	inactive
51	Azi2 (5-azacytidine induced gene 2)	1	no change with or without drug	0.56	-1.01	1.46	0.99	inactive
52	Pagr1a (PAXIP1 associated glutamate rich protein 1A)	1	no change with or without drug	0.34	-0.17	0.56	0.97	inactive
53	Kank4 (KN motif and ankyrin repeat domains 4)	1	no change with or without drug	-0.11	0.34	-0.22	0.93	inactive
54	Tha1 (threonine aldolase 1)	1	no change with or without drug	-0.22	-0.51	0.22	0.92	inactive
55	Gm9732 (predicted gene 9732)	1	no change with or without drug	0.56	1.18	-0.11	0.99	inactive
56	Vwa2 (von Willebrand factor A domain containing 2)	1	high cell count without drug only	-1.8	2.02	-2.81	0.78	inactive
57	Hpgds (hematopoietic prostaglandin D synthase)	1	no change with or without drug	1.35	0	1.57	1.06	inactive
58	Mt1 (metallothionein 1)	1	high cell count with and without drug	2.14	2.87	0.34	1.13	inactive
59	Or6c210 (olfactory receptor family 6 subfamily C member 210)	1	no change with or without drug	-0.67	-0.17	-0.45	0.88	inactive
60	Catsper1 (cation channel, sperm associated 1)	1	no change with or without drug	0.9	1.01	0.34	1.02	inactive
61	Xpr1 (xenotropic and polytropic retrovirus receptor 1)	1	no change with or without drug	1.69	1.52	0.79	1.09	inactive
62	Tyrp1 (tyrosinase-related protein 1)	1	no change with or without drug	-1.57	-1.69	-0.45	0.8	inactive
63	Jmjd4 (jumonji domain containing 4)	1	no change with or without drug	-0.22	-1.18	0.79	0.92	inactive

A portion of the results above, as a working copy:
no.	gene knocked down	reagent	combined z-score class	viability z-score with doxorubicin	viability z-score without drug	z-score of drug to no-drug ratio	doxorubicin viability vs non-targeting	activity call
10	Gpr6 (G protein-coupled receptor 6)	1	no change with or without drug	0.34	-0.51	0.79	0.97	inactive
11	Nup133 (nucleoporin 133)	1	low cell count without drug only	-1.35	-3.04	0.9	0.82	inactive
12	Or12e9 (olfactory receptor family 12 subfamily E member 9)	1	no change with or without drug	0	0.51	-0.22	0.94	inactive
13	Ccdc28a (coiled-coil domain containing 28A)	1	no change with or without drug	0.67	0.17	0.67	1	inactive
14	1810009N02Rik (RIKEN cDNA 1810009N02 gene)	1	low cell count with doxorubicin only	-3.6	-0.17	-3.6	0.62	active
